Experimental data published in paper PMC8476571.
No constants are given. Whether binding was seen depends on the method and setting. Some results given as binding are weak or reduced against the parent protein; the word gives no strength. Sequences can lack the tags named with a protein.

T1: Lactococcus lactis Csm2 (LlCsm2) with N-terminal His6-tag (Lactococcus lactis) (UniProt L0CFW2)
T1 sequence: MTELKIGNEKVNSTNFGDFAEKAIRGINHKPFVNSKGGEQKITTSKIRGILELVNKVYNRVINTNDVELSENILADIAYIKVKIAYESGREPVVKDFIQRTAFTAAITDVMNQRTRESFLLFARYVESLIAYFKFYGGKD


Biological target: T1, Lactococcus lactis Csm2 (LlCsm2) with N-terminal His6-tag (Lactococcus lactis)
Assay: co-purification (Ni-NTA affinity, then size exclusion); all Csm subunits and the crRNA co-expressed in E. coli from one plasmid; complex isolated by the N-terminal His6-tag on LlCsm2; size-exclusion column in 20 mM HEPES pH 7.5, 200 mM NaCl, 5 mM MgCl2, 14 mM 2-mercaptoethanol; the complex is a ribonucleoprotein with crRNA

binding	Binder
binds	Lactococcus lactis Csm3 (LlCsm3) (enzyme, UniProt L0CEA3 1-214) MKLVIEGTIVLKTGMHIGGSSDFSAIGAVDSPVVRDTLTRLPLIPGSSLKGKMRYLLAKELNNGILLNEPNNDQDEILRLFGSSEKDKIRRARLKFNDIKLSNLAELETFNVSSTEVKFENTINRKTAVANPRQIERVIAGSKFDFEIFYNLDDIKEVEKDFENIKQGFDLLEFDYLGGHGTRGSGRIAFENLSVITAVGNFEKINTLNEILGA
binds	Lactococcus lactis Csm3 D30A (enzyme, UniProt L0CEA3 1-214) MKLVIEGTIVLKTGMHIGGSSDFSAIGAVASPVVRDTLTRLPLIPGSSLKGKMRYLLAKELNNGILLNEPNNDQDEILRLFGSSEKDKIRRARLKFNDIKLSNLAELETFNVSSTEVKFENTINRKTAVANPRQIERVIAGSKFDFEIFYNLDDIKEVEKDFENIKQGFDLLEFDYLGGHGTRGSGRIAFENLSVITAVGNFEKINTLNEILGA
